The record followed here is patent US20240366624A1, “METHODS AND COMPOSITIONS FOR TREATING THROMBOTIC DISEASE” (Washington University, priority 2023, published 2024).

By UniProt entry, the sequences of proteins in these tests, tags left out. Residues count along the entry.
UniProt P07237, residues 18-508: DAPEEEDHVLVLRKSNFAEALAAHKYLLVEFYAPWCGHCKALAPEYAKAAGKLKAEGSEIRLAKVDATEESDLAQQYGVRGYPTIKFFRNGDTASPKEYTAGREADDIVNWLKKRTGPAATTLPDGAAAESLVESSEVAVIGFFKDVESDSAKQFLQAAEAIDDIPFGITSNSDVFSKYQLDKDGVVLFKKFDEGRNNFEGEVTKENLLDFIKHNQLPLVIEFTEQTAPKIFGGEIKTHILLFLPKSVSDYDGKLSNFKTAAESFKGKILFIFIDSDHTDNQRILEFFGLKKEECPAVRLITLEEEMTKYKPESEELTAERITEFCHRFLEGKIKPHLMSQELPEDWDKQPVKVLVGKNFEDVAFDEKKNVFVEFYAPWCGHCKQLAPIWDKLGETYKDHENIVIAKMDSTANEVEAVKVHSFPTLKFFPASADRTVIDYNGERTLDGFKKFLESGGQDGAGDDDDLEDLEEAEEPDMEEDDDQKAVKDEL

The target of assay [1] is T1, human platelet ERO1α (human) (UniProt Q96HE7).
T1 sequence (looked up): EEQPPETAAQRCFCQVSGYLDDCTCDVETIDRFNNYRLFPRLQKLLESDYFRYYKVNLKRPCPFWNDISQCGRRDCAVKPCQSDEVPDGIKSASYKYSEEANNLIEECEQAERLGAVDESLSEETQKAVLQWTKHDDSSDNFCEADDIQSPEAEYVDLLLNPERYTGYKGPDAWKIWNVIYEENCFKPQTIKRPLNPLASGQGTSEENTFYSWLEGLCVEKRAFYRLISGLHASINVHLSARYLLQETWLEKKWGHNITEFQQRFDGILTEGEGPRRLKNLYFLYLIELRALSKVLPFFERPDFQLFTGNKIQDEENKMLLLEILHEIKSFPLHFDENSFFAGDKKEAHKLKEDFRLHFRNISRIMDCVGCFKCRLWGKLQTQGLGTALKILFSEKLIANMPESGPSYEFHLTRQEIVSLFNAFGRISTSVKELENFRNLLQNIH
The assay is described as follows: co-immunoprecipitation of ERO1α from lysates of resting and thrombin-activated human platelets, mass spectrometry; volcano plot thrombin versus no thrombin.

For assay [2], the target named is human platelet PDI (protein disulfide isomerase) (human) (UniProt P07237). The assay is described as follows: co-immunoprecipitation with biotinylated polyclonal anti-PDI antibodies from lysates of resting and thrombin-treated human platelets, trypsin digestion, mass spectrometry; volcano plot thrombin versus no thrombin.
Assay [3] deals with T2, human platelet ERO1α (human), Q96HE7.
T2 chain: T1 sequence (looked up)
Description: co-immunoprecipitation of ERO1α from lysates of resting and thrombin-activated human platelets, mass spectrometry; volcano plot thrombin versus no thrombin. To be noted: remark: other sources report otherwise.

Results are given in words; binding and its absence hold for the method and conditions named. Binding seen in cells or lysates may run through a third protein. Here binding means that the protein was enriched with, or labelled near, the bait; the list need not be complete.

B1: MYO1F (protein, human, UniProt O00160 1-1098, looked up)
single chain: MGSKERFHWQSHNVKQSGVDDMVLLPQITEDAIAANLRKRFMDDYIFTYIGSVLISVNPFKQMPYFTDREIDLYQGAAQYENPPHIYALTDNMYRNMLIDCENQCVIISGESGAGKTVAAKYIMGYISKVSGGGEKVQHVKDIILQSNPLLEAFGNAKTVRNNNSSRFGKYFEIQFSRGGEPDGGKISNFLLEKSRVVMQNENERNFHIYYQLLEGASQEQRQNLGLMTPDYYYYLNQSDTYQVDGTDDRSDFGETLSAMQVIGIPPSIQQLVLQLVAGILHLGNISFCEDGNYARVESVDLLAFPAYLLGIDSGRLQEKLTSRKMDSRWGGRSESINVTLNVEQAAYTRDALAKGLYARLFDFLVEAINRAMQKPQEEYSIGVLDIYGFEIFQKNGFEQFCINFVNEKLQQIFIELTLKAEQEEYVQEGIRWTPIQYFNNKVVCDLIENKLSPPGIMSVLDDVCATMHATGGGADQTLLQKLQAAVGTHEHFNSWSAGFVIHHYAGKVSYDVSGFCERNRDVLFSDLIELMQTSEQAFLRMLFPEKLDGDKKGRPSTAGSKIKKQANDLVATLMRCTPHYIRCIKPNETKRPRDWEENRVKHQVEYLGLKENIRVRRAGFAYRRQFAKFLQRYAILTPETWPRWRGDERQGVQHLLRAVNMEPDQYQMGSTKVFVKNPESLFLLEEVRERKFDGFARTIQKAWRRHVAVRKYEEMREEASNILLNKKERRRNSINRNFVGDYLGLEERPELRQFLGKRERVDFADSVTKYDRRFKPIKRDLILTPKCVYVIGREKVKKGPEKGQVCEVLKKKVDIQALRGVSLSTRQDDFFILQEDAADSFLESVFKTEFVSLLCKRFEEATRRPLPLTFSDTLQFRVKKEGWGGGGTRSVTFSRGFGDLAVLKVGGRTLTVSVGDGLPKSSKPTRKGMAKGKPRRSSQAPTRAAPAPPRGMDRNGVPPSARGGPLPLEIMSGGGTHRPPRGPPSTSLGASRRPRARPPSEHNTEFLNVPDQGMAGMQRKRSVGQRPVPGVGRPKPQPRTHGPRCRALYQYVGQDVDELSFNVNEVIEILMEDPSGWWKGRLHGQEGLFPGNYVEKI
Turning to B1, the binding result in assay [1] is given as “binds”.

B2: GRAP2 (protein, human, UniProt O75791 1-330, looked up)
single chain: MEAVAKFDFTASGEDELSFHTGDVLKILSNQEEWFKAELGSQEGYVPKNFIDIQFPKWFHEGLSRHQAENLLMGKEVGFFIIRASQSSPGDFSISVRHEDDVQHFKVMRDNKGNYFLWTEKFPSLNKLVDYYRTNSISRQKQIFLRDRTREDQGHRGNSLDRRSQGGPHLSGAVGEEIRPSMNRKLSDHPPTLPLQQHQHQPQPPQYAPAPQQLQQPPQQRYLQHHHFHQERRGGSLDINDGHCGTGLGSEMNAALMHRRHTDPVQLQAAGRVRWARALYDFEALEDDELGFHSGEVVEVLDSSNPSWWTGRLHNKLGLFPANYVAPMTR
Consider B2, for which the binding entry in assay [2] is on record as “binds”.

B3: RGS18 (protein, human, UniProt Q9NS28 1-235, looked up)
single chain: METTLLFFSQINMCESKEKTFFKLIHGSGKEETSKEAKIRAKEKRNRLSLLVQKPEFHEDTRSSRSGHLAKETRVSPEEAVKWGESFDKLLSHRDGLEAFTRFLKTEFSEENIEFWIACEDFKKSKGPQQIHLKAKAIYEKFIQTDAPKEVNLDFHTKEVITNSITQPTLHSFDAAQSRVYQLMEQDSYTRFLKSDIYLDLMEGRPQRPTNLRRRSRSFTCNEFQDVQSDVAIWL
Consider B3, for which the binding result in assay [1] is listed as “binds”.

B4: SERPINE2 (protein, human, UniProt P07093 20-398, looked up)
single chain: SHFNPLSLEELGSNTGIQVFNQIVKSRPHDNIVISPHGIASVLGMLQLGADGRTKKQLAMVMRYGVNGVGKILKKINKAIVSKKNKDIVTVANAVFVKNASEIEVPFVTRNKDVFQCEVRNVNFEDPASACDSINAWVKNETRDMIDNLLSPDLIDGVLTRLVLVNAVYFKGLWKSRFQPENTKKRTFVAADGKSYQVPMLAQLSVFRCGSTSAPNDLWYNFIELPYHGESISMLIALPTESSTPLSAIIPHISTKTIDSWMSIMVPKRVQVILPKFTAVAQTDLKEPLKVLGITDMFDSSKANFAKITTGSENLHVSHILQKAKIEVSEDGTKASAATTAILIARSSPPWFIVDRPFLFFIRHNPTGAVLFMGQINKP
Turning to B4, the binding result in assay [1] is reported as “binds”.

B5: PDIA3, P30101 (enzyme, human, UniProt P30101 25-505, looked up)
single chain: SDVLELTDDNFESRISDTGSAGLMLVEFFAPWCGHCKRLAPEYEAAATRLKGIVPLAKVDCTANTNTCNKYGVSGYPTLKIFRDGEEAGAYDGPRTADGIVSHLKKQAGPASVPLRTEEEFKKFISDKDASIVGFFDDSFSEAHSEFLKAASNLRDNYRFAHTNVESLVNEYDDNGEGIILFRPSHLTNKFEDKTVAYTEQKMTSGKIKKFIQENIFGICPHMTEDNKDLIQGKDLLIAYYDVDYEKNAKGSNYWRNRVMMVAKKFLDAGHKLNFAVASRKTFSHELSDFGLESTAGEIPVVAIRTAKGEKFVMQEEFSRDGKALERFLQDYFDGNLKRYLKSEPIPESNDGPVKVVVAENFDEIVNNENKDVLIEFYAPWCGHCKNLEPKYKELGEKLSKDPNIVIAKMDATANDVPSPYEVRGFPTIYFSPANKKLNPKKYEGGRELSDFISYLQREATNPPVIQEEKPKKKKKAQEDL
As to B5, the binding entry in assay [3] is given as “binds”.
